Assay [1] has as its target T1, FLAG-tagged human LZTR1 (Leucine zipper-like transcription regulator 1) (human) (UniProt Q8N653).
T1 sequence: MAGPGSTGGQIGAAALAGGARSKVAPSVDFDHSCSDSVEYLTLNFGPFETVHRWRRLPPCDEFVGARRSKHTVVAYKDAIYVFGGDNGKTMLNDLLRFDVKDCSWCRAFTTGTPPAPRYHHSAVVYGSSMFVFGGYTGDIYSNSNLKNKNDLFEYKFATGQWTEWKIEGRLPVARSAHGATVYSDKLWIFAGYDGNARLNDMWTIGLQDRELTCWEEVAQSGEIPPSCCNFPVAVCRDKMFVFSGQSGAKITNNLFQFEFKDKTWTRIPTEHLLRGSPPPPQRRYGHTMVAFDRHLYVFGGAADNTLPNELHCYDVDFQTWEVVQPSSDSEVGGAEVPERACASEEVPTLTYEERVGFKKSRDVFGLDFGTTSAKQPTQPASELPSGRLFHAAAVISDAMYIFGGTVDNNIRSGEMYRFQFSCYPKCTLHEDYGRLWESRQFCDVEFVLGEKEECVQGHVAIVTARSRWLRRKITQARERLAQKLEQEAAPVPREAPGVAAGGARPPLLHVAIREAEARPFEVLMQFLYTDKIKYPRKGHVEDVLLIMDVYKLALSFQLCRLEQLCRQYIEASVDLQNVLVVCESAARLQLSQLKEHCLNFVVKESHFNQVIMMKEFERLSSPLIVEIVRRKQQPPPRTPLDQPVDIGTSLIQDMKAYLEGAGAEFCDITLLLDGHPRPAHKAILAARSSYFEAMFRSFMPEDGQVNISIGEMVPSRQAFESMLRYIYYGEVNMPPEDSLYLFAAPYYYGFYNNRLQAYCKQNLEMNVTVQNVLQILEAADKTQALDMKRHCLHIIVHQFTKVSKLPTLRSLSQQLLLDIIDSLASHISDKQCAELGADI
The assay is described as follows: co-IP; FLAG immunoprecipitation (Flag-tag Protein IP Assay Kit with magnetic beads) from HaCaT cells reconstituted with empty vector or FLAG-tagged human LZTR1; immunoblot for endogenous PSMA6, PSMA7 and RPS3. In general terms: In western blotting, separated proteins are transferred to a membrane and probed.

Amino acid sequences for entries named in this document (tags omitted).
UniProt O14818: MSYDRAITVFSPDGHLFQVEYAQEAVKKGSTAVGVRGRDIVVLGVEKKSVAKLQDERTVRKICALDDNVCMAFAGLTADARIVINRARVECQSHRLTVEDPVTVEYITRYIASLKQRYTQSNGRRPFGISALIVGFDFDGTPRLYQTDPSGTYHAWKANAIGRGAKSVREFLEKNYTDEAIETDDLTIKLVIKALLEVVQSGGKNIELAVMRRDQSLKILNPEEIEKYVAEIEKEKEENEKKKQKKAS
UniProt P19838: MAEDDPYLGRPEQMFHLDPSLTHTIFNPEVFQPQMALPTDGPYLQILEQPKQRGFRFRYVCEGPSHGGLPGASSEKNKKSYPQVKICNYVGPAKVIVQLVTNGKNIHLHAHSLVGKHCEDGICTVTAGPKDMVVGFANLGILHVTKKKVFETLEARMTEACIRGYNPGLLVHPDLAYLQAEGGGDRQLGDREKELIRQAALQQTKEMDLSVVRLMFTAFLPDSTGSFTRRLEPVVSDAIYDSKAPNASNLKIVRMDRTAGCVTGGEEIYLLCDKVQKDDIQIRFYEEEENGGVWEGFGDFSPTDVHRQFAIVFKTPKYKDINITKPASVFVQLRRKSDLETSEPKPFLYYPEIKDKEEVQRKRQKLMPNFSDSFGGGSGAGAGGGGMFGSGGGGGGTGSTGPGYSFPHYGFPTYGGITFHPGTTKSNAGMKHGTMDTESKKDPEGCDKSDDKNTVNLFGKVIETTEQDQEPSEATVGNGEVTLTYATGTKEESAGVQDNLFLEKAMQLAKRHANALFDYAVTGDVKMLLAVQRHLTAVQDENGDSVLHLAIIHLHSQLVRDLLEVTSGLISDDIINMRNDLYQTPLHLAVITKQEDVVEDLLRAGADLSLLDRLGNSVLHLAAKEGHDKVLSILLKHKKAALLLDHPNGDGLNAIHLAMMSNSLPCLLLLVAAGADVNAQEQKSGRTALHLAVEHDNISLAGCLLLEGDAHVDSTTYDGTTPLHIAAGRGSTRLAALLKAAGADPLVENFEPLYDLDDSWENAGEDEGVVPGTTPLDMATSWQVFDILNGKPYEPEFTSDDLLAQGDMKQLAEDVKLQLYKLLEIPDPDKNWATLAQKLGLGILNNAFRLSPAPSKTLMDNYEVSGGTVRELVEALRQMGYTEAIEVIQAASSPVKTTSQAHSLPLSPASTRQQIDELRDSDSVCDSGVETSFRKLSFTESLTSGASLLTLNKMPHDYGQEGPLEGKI

Assay [2] addresses T1, FLAG-tagged human LZTR1 (Leucine zipper-like transcription regulator 1) (human). The assay is described as follows: co-IP; Supplementary Fig. S14c, d; set-up not told in the text shown; the methods describe only anti-NF-κB1 and FLAG immunoprecipitations from HaCaT lysates (NP-40 lysis buffer).

These are yes or no findings as the source states them, for the method shown. Binding seen in cells or lysates may run through a third protein. Some entries that bind do so weakly or less than the wild type. Tags and fused reporters may be left off the sequences shown.

“PSMA7 (proteasome 20S subunit alpha) (from UniProt O14818 1-248)”: the binding result in assay [1] was “binds”. Consider “NF-κB1 p105 (precursor form) (from UniProt P19838 1-968)”, for which, in assay [2], the binding result is “no binding”.

The values are drawn from publication PMC12572372.
